In the data set the test system is 97 kinases of the scanEDGE set. The data set is described as follows: DiscoveRx KINOMEscan scanEDGE panel. The format is binding. The conditions noted are these: 2 µM.

We go through two compounds from paper PMC6155239, “Targeting PFKFB3 radiosensitizes cancer cells and suppresses homologous recombination” (Nature Communications, 2018).

In the case of `O=C(O)c1ccc(NS(=O)(=O)c2cccc(-c3cc(F)ccc3O)c2)cc1O` [KAN0438241, 4-{[(5′-Fluoro-2′-hydroxybiphenyl-3-yl)sulfonyl]amino}-2-hydroxybenzoic acid], the “SScore(35)” value was 0.

For `O=C(OCCO)c1ccc(NS(=O)(=O)c2cccc(-c3cc(F)ccc3O)c2)cc1O` [KAN0438757, 2-Hydroxyethyl-4-{[(5′-fluoro-2′-hydroxybiphenyl-3-yl)sulfonyl]amino}-2-hydroxybenzoate], the “SScore(35)” value is reported as 0.
